In PMC3079584 one finds binding data, which are given here for 3 substances.

By UniProt entry, the sequences of proteins in these tests, tags left out. Where a name states a change or a piece, a line headed by the entry shows the natural chain unless it says otherwise.
UniProt P36068: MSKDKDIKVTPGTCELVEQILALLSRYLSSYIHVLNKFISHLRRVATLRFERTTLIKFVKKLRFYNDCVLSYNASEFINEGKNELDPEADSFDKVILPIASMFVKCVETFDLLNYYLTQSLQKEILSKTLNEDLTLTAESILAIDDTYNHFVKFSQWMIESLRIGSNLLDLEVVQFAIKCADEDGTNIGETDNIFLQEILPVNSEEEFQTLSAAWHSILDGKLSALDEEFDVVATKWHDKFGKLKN

In assay [1] the target is T1, Full-length His-She3p (Saccharomyces cerevisiae) (UniProt P38272).
T1 sequence: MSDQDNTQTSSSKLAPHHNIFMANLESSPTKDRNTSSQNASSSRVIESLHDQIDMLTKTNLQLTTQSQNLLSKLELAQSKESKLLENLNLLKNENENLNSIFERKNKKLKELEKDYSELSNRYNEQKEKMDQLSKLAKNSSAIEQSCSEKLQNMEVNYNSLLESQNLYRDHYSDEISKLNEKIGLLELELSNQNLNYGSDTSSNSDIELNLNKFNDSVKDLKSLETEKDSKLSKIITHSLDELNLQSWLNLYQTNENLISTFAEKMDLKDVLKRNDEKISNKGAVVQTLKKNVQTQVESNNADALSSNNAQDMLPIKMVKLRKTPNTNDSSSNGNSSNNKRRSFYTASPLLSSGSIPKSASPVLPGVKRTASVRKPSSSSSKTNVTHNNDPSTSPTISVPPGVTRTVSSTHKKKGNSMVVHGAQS
As to the kind of experiment: pull-down; His-tagged She3p (full length, point mutants, or MBP-She3p fragment-His) on nickel sepharose, no RNA; 7.5–10 µM of each protein, HNMD-buffer (20 mM HEPES pH 7.8, 200 mM NaCl, 2 mM MgCl2, 2 mM DTT) with 30–50 mM imidazole, 30–60 min at 4°C; SDS-PAGE, Coomassie; both purified.

The target in assay [2] is T2, His-She3p (L364A V367A) (Saccharomyces cerevisiae) (UniProt P38272).
T2 sequence: T1 sequence with L364A, V367A
Described as above.

Substitutions are numbered along the chain they refer to. These are yes or no findings as the source states them, for the method shown. Tags and fused reporters may be left off the sequences shown.

“She2p (Q197A E198A I199A) (from UniProt P36068 1-246)”: the binding result in assay [1] is given as “no binding (tested: 7.5–10 µM of each protein)”.
As for “She2p (wild type) (from UniProt P36068 1-246)”, the binding result in assay [2] is “no binding (tested: 7.5–10 µM of each protein)”.
Turning to “She2p (F195A L196A) (from UniProt P36068 1-246)”, the binding result in assay [1] is given as “no binding (tested: 7.5–10 µM of each protein)”.
